For four substances, binding results are on record in paper PMC11997338.

Results are given in words; binding and its absence hold for the method and conditions named. In cells and extracts the contact can be indirect. Binding can be weak; no strength is given. Sequences can lack the tags named with a protein.

The assay addresses T1, hemagglutinin (HA)-tagged endoglin (ENG) (UniProt P17813).
T1 sequence: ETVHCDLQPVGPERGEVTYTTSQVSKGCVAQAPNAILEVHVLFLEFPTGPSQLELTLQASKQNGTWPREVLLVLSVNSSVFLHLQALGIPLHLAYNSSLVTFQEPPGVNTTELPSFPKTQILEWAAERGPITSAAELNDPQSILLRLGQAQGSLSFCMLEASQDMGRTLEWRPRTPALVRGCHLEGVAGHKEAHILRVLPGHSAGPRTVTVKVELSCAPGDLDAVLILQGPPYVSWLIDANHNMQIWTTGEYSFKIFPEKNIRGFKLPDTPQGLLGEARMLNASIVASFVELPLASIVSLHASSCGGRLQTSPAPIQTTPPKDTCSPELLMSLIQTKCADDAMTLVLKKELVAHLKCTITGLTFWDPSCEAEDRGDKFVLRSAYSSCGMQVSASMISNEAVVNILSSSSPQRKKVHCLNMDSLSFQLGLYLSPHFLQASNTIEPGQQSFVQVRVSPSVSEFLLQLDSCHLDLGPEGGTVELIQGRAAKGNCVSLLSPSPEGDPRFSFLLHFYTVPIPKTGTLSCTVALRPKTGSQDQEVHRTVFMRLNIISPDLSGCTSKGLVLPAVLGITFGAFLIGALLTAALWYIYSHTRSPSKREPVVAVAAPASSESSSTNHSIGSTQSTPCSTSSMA
Nature of the assay: co-IP; HEK293T co-transfected with HA-tagged ENG and GFP-tagged DSP plasmids, 48 h; NP-40 lysis buffer (50 mM Tris–HCl pH 7.4, 150 mM NaCl, 1% NP-40); anti-HA or anti-GFP antibody overnight at 4 °C, protein A/G magnetic beads; isotype IgG control; Western blot. (In general: Immunoblotting shows a protein as a band on a membrane.)
Consider “GFP-tagged DSP_(aa34–50) (domain or fragment)”, for which the binding entry was “binds”.

Turning to GFP-tagged DSP_(Δ34–50), the binding entry was “no binding”.

As to “GFP-tagged full-length dentin sialoprotein (DSP)”, the binding entry is on record as “binds”.

As for “GFP-tagged truncated DSP, aa1–100 (domain or fragment)”, the binding result is on record as “binds”.
